Values quoted from earlier work as cited in patent US12344584B2, “KCNQ potentiators” (Eli Lilly and Company, priority 2019, dated 2025).
For at least one compound, name, drawing or mass did not settle the structure.

What was measured:
[1] = system: motor neurons derived from pluripotent stem cells from ALS patients; settings: added to stem cell-derived neurons of ALS patients; cited from earlier work
[2] = system: rat hypoglossal motor neurons; settings: in vitro model of ALS; cited from earlier work

CCOC(=O)Nc1ccc(NCc2ccc(F)cc2)cc1N [retigabine]
hyperexcitability of the motor neurons [1]: normalized | in vitro survival of the cells [1]: increased | survival [2]: increased survival | symptoms of excitotoxicity [2]: reduced symptoms of excitotoxicity
